For experiment [1], the target named is TAP-Kv4.2 (human) (UniProt Q9NZV8). In words: affinity purification with mass spectrometry; TAP-Kv4.2 expressed by lentivirus in rat hippocampal neurons, harvested at DIV14; weak lysis buffer of the kit (0.1% NP-40); streptavidin resin, then calmodulin resin; gel cut into high and low molecular weight fragments; no MS of the control sample.
For experiment [2] the target is unchanged. As to the kind of experiment: affinity purification with mass spectrometry; TAP-Kv4.2 expressed by lentivirus in rat hippocampal neurons, harvested at DIV14; strong lysis buffer (1% Triton X-100, 0.5% deoxycholate in PBS, pH 7.4); streptavidin resin, then calmodulin resin; gel cut into high and low molecular weight fragments; no MS of the control sample.

By UniProt entry, the sequences of proteins in these tests, tags left out.
UniProt Q9NZV8: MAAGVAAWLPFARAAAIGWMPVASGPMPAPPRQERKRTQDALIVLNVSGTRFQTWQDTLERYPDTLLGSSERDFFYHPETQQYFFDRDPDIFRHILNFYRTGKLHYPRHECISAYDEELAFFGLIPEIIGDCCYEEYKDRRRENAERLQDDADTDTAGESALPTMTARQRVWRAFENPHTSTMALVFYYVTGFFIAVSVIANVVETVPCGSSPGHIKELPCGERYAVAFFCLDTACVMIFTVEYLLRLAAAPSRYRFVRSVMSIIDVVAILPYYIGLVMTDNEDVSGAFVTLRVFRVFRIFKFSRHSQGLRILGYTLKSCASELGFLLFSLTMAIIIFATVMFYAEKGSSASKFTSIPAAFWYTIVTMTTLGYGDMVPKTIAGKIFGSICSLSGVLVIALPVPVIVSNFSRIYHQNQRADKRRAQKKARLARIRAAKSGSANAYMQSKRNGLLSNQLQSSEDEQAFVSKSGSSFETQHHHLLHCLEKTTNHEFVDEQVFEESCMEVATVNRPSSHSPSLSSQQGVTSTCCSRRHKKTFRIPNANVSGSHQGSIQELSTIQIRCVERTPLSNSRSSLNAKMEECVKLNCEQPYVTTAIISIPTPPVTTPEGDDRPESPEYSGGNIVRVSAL

No constants are given. Whether binding was seen depends on the method and setting. In cells and extracts the contact can be indirect. These calls come from enrichment with a bait or labelling near it, and not all partners need be listed.

B1: Lrrc7 (protein, UniProt P70587 1-1490)
chain: MTTKRKLIGRLVPCRCFRGEEEIISVLDYSHCSLQQVPKEVFNFERTLEELYLDANQIEELPKQLFNCQALRKLSIPDNDLSSLPTSIASLVNLKELDISKNGVQEFPENIKCCKCLTIIEASVNPISKLPDGFTQLLNLTQLYLNDAFLEFLPANFGRLVKLRILELRENHLKTLPKSMHKLAQLERLDLGNNEFSELPEVLDQIQNLRELWMDNNALQVLPGSIGKLKMLVYLDMSKNRIETVDMDISGCEALEDLLLSSNMLQQLPDSIGLLKKLTTLKVDDNQLTMLPNTIGNLSLLEEFDCSCNELESLPPTIGYLHSLRTLAVDENFLPELPREIGSCKNVTVMSLRSNKLEFLPEEIGQMQRLRVLNLSDNRLKNLPFSFTKLKELAALWLSDNQSKALIPLQTEAHPETKQRVLTNYMFPQQPRGDEDFQSDSDSFNPTLWEEQRQQRMTVAFEFEDKKEDDESAGKVKALSCQAPWDRGQRGITLQPARLSGDCCTPWARCDQQIQDMPVPQSDPQLAWGCISGLQQERSMCAPLPVAAQSTTLPSLSGRQVEINLKRYPTPYPEDLKNMVKSVQNLVGKPSHGVRVENANPTANTEQTVKEKFEHKWPVAPKEITVEDSFVHPANEMRIGELHPSLAETPLYPPKLVLLGKDKKESTDESEVDKTHCLNNSVSSGTYSDYSPSQASSASSNTRVKVGSLQPTTKDAVHNSLWGNRIAPPFPQPLDAKPLLTQREAVPPGNLPQRPDRLPMSDAFPDNWTDGSHYDNTGFVSEEATGENANNNPLLSSKARSVPAHGRRPLIRQERIVGVPLELEQSTHRHTPETEVPPSNPWQNWTRTPSPFEDRTAFPSKLETTPTTSPLPERKDHMKEPTETPGPFSPGVPWEYHDPTPNRSLGNVFSQIHCRPDSSKGVIAISKSTERLSPLMKDIKSNKFKKSQSIDEIDVGTYKVYNIPLENYASGSDHLGSHERPDKFLGPEHGMSSMSRSQSVPMLDDEMLMYGSSKGPPQQKASMTKKVYQFDQSFNPQGAVEVKAEKRIPPPFAHNSEYVQQPGKNIAKDLVSPRAYRGYPPMEQMFSFSQPSVNEDAMVNAQFASQGPRAGFLRRADSLASSTEMAMFRRVSEPHELPPGDRYGRAAYRGGLEGQSSVSMTDPQFLKRNGRYEDEHPSYQEVKAQAGSFPAKNLTQRRPLSARSYSTESYGASQTRPVSARPTMAALLEKIPSDYNLGNYGDKTSDNSDIKTRPTPVKGEESCGKMPADWRQQLLRHIEARRLDRTPSQQSNILDNGQEDVSPSGQWNPYPLGRRDVPPDTITKKAGSHIQTLMGSQSLQHRSREQQPYEGNINKVTIQQFQSPLPIQIPSSQATRGPQPGRCLIQTKGQRSMDGYPEQFCVRIEKNPGLGFSISGGISGQGNPFKPSDKGIFVTRVQPDGPASNLLQPGDKILQANGHSFVHMEHEKAVLLLKSFQNTVDLVIQRELTV
With B1, the binding entry with TAP-Kv4.2 (human) [1] and in the experiment with TAP-Kv4.2 (human) [2] was “binds” throughout.

B2: Nefm (protein, UniProt P12839 1-846)
chain: MSYTLDSLGNPSAYRRVPTETRSSFSRVSGSPSSGFRSQSWSRGSPSTVSSSYKRSALAPRLAYSSAMLSSAESSLDFSQSSSLLNGGSGGDYKLSRSNEKEQLQGLNDRFAGYIEKVHYLEQQNKEIEAEIHALRQKQASHAQLGDAYDQEIRELRATLEMVNHEKAQVQLDSDHLEEDIHRLKERFEEEARLRDDTEAAIRAVRKDIEESSMVKVELDKKVQSLQDEVAFLRSNHEEEVADLLAQIQASHITVERKDYLKTDISTALKEIRSQLECHSDQNMHQAEEWFKCRYAKLTEAAEQNKEAIRSAKEEIAEYRRQLQSKSIELESVRGTKESLERQLSDIEERHNHDLSSYQDTIQQLENELRGTKWEMARHLREYQDLLNVKMALDIEIAAYRKLLEGEETRFSTFSGSITGPLYTHRQPSVTISSKIQKTKVEAPKLKVQHKFVEEIIEETKVEDEKSEMEDALTVIAEELAASAKEEKEEAEEKEEEPEVEKSPVKSPEAKEEEEGEKEEEEEGQEEEEEEDEGVKSDQAEEGGSEKEGSSEKDEGEQEEEGETEAEGEGEEAEAKEEKKTEGKVEEMAIKEEIKVEKPEKAKSPVPKSPVEEVKPKPEAKAGKDEQKEEEKVEEKKEVAKESPKEEKVEKKEEKPKDVPDKKKAESPVKEKAVEEMITITKSVKVSLEKDTKEEKPQQQEKVKEKAEEEGGSEEEVGDKSPQESKKEDIAINGEVEGKEEEEQETQEKGSGQEEEKGVVTNGLDVSPAEEKKGEDRSDDKVVVTKKVEKITSEGGDGATKYITKSVTVTQKVEEHEETFEEKLVSTKKVEKVTSHAIVKEVTQGD
Take B2: the binding result with TAP-Kv4.2 (human) [1] and in the experiment with TAP-Kv4.2 (human) [2] was “binds” throughout.

B3: Srcin1 (protein, UniProt Q9QXY2 1-1197)
chain: MQPWQCLRRFALAWWERTAEGRARSPREEVGPRDPGGRGEPDPERSSPPMLSADDAEYPREYRTLGGGGSGGSGGRRFSNVGLVHTSERRHTVIAAQSLEALSGLQKADADRKRDAFMDHLKSKYPQHALALRGQQDRMREQQPNYWSFKTRSSRHTQGAQPGLADQAAKLSYASAESLETMSEAELPLGFSRMNRFRQSLPLSRSASQTKLRSPGVLFLQFGEETRRVHITHEVSSLDTLHALIAHMFPQKLTMGMLKSPNTAILIKDEARNVFYELEDVRDIQDRSIIKIYRKEPLYAAFPGSHLTNGDLRREMVYASRESSPTRRLNNLSPASHLASSSPPPGLPSGLPSGLPSGSPSRSRLSYAGGRPPSYAGSPVHHAAERLGGAPTSQGVSPSPSAILERRDVKPDEDLAGKAGGMVLVKGEGLYADPYGLLHEGRLSLAAAAGDPFAYPGAGGLYKRGSVRSLSTYSAAALQSDLEDSLYKAGAGGPLYGDGYGFRLPPSSPQKLADVSAPSGGPPPPHSPYSGPPSRGSPVRQSFRKDSGSSSVFAESPGGKARSTGASTAGAPPSELFPGPGERSLVGFGPPVPAKDTETRERMEAMEKQIASLTGLVQSALLRGSEPETPSEKIEGSNGAATPSAPVCGSGSRSSGATPVSGPPPPAVSSTPAGQPTAVSRLQMQMHLRGLQNSASDLRGQLQQLRKLQLQNQESVRALLKRTEAELSMRVSEAARRQEDPLQRQRTLVEEERLRYLNDEELITQQLNDLEKSVEKIQRDVAHNHRLVPGPELEEKALVLKQLGETLTELKAHFPGLQSKMRVVLRVEVEAVKFLKEEPQRLDGLLKRCRVVTDTLAQIRRQVDEGVWPPPNNLLNQSPKKVAAETDFSKGLDFEIPPPSPPLNLHELSGPAEGTPLTPKSGNPTKGLDAPSKRNMDKAVSVEAAERDWEEKRAALTQYSAKDINRLLEETQAELLKAIPDLDCASKTHPGPTPTPDHKPPKAPHGQKAAPRTEPSGRRGSDELTVPRYRTEKPSKSPPPPPPRRSFPSSHGLTTTRTGEVVVTSKKDSVFIKKAESEELEIQKPQVKLRRAVSEVVRPASTPPIMASAIKDEDDEERIIAELESGGGSVPPMKVVTPGASRLKAAQGPAGSPDKGKHGKQRTEYMRIQAQQQVRVGYQAPRPLEGCTPRLCYMPLS
Turning to B3, the binding entry with TAP-Kv4.2 (human) [1] and with TAP-Kv4.2 (human) [2] was “binds” each time.

B4: Pcca (protein, UniProt P14882 62-737)
chain: SVEYEPKEKTFDKILIANRGEIACRVIKTCRKMGIRTVAIHSDVDASSVHVKMADEAVCVGPAPTSKSYLNMDAIMEAIKKTGAQAVHPGYGFLSENKEFAKCLAAEDVTFIGPDTHAIQAMGDKIESKLLAKRAKVNTIPGFDGVLKDADEAVRIAREIGYPVMIKASAGGGGKGMRIPWDDEETRDGFRFSSQEAASSFGDDRLLIEKFIDNPRHIEIQVLGDKHGNALWLNERECSIQRRNQKVVEEAPSIFLDPETRRAMGEQAVAWPKAVKYSSAGTVEFLVDSQKNFYFLEMNTRLQVEHPVTECITGLDLVQEMILVAKGYPLRHKQEDIPISGWAVECRVYAEDPYKSFGLPSIGRLSQYQEPIHLPGVRVDSGIQPGSDISIYHDPMISKLVTYGSDRAEALKRMEDALDSYVIRGVTHNIPLLREVIINTRFVKGDISTKFLSDVYPDGFKGHMLTPSERDQLLAIASSLFVASQLRAQRFQEHSRVPVIRPDVAKWELSVKLHDEDHTVVASNNGPTFNVEVDGSKLNVTSTWNLASPLLSVNVDGTQRTVQCLSPDAGGNMSIQFLGTVYKVHILTKLAAELNKFMLEKVPKDTSSVLRSPKPGVVVAVSVKPGDMVAEGQEICVIEAMKMQNSMTAGKMGKVKLVHCKAGDTVGEGDLLVELE
B4: the binding result in the experiment with TAP-Kv4.2 (human) [1] and with TAP-Kv4.2 (human) [2] was “binds” each time.
